Experimental data: PubChem BioAssay AID1159578 (Peter MacCallum Cancer Centre, 2015)
Shown is a random part of about 18,000 reagents tested. About 1,030 of all reagents (5.7%) were called active. 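Inactive calls also include pools with fewer than 3300 nuclei, whose migration was not assessed.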 Raw values vary from plate to plate and are shown uncorrected. No sequences are given here.

Aim: 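Genome-wide hunt for genes controlling movement of lymphatic endothelial cells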 (primary screen)
System: human lymphatic endothelial cells
Reagent: siRNA pool against human genes, 40 nM
Duration: 48 h after transfection
Measurement: 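High-content imaging of dye-stained cells in a scratch assay measures filled wound area and nuclei per well; duplicate means given as ratio to mock and robust z-score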
Direction: migration robust z-score: higher = faster migration into the scratch; migration relative to mock: higher = more scratch area covered than mock; nuclei per well: higher = more cells in the well
Hit rule: 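Migration changed when robust z exceeds 2 or falls below -2 and mean nuclei number is at least 3300; otherwise not called changed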
Calls: active = migration changed; inactive = no migration change, or too few cells

gene | migration robust z-score | migration class with cell-count check | migration relative to mock | nuclei per well, duplicate mean | activity call
NIBAN2 | -0.38 | migration z between -2 and 2; enough cells | 0.78 | 5590 | inactive
PYGL | 0.75 | migration z between -2 and 2; enough cells | 0.95 | 6038 | inactive
NUP155 | 0.08 | migration z between -2 and 2; enough cells | 0.9 | 5454 | inactive
LIFR | 1.14 | migration z between -2 and 2; enough cells | 1.02 | 6663 | inactive
WNT8B | -0.52 | migration z between -2 and 2; enough cells | 0.76 | 4279 | inactive
ZNF317 | -0.58 | under 3300 nuclei; migration not judged | 0.74 | 2960 | inactive
GULP1 | 0.2 | migration z between -2 and 2; enough cells | 0.84 | 7090 | inactive
ZDHHC14 | 1.34 | migration z between -2 and 2; enough cells | 1.23 | 6164 | inactive
ENPP5 | 0.16 | migration z between -2 and 2; enough cells | 0.84 | 5588 | inactive
PLK2 | -0.72 | migration z between -2 and 2; enough cells | 0.66 | 4546 | inactive
CPEB4 | -0.82 | migration z between -2 and 2; enough cells | 0.67 | 5888 | inactive
NFIA | 0.94 | migration z between -2 and 2; enough cells | 0.98 | 6188 | inactive
MRGPRE | -0.44 | migration z between -2 and 2; enough cells | 0.72 | 6386 | inactive
SLC16A10 | -0.88 | migration z between -2 and 2; enough cells | 0.64 | 4480 | inactive
SERTAD1 | 0.08 | migration z between -2 and 2; enough cells | 0.82 | 5740 | inactive
CRTC3 | -3.26 | migration z below -2; enough cells | 0.02 | 3607 | active
GOLGA6A | 0.34 | migration z between -2 and 2; enough cells | 0.98 | 6500 | inactive
SLC7A4 | 0.44 | migration z between -2 and 2; enough cells | 0.89 | 6136 | inactive
EPB41L1 | 0.29 | migration z between -2 and 2; enough cells | 0.86 | 5105 | inactive
ITGB8 | 0.2 | migration z between -2 and 2; enough cells | 0.84 | 6181 | inactive
MED24 | 0.44 | migration z between -2 and 2; enough cells | 1 | 6151 | inactive
PSMD7 | -1.71 | migration z between -2 and 2; enough cells | 0.48 | 6630 | inactive
NAA40 | 0.09 | migration z between -2 and 2; enough cells | 0.9 | 6210 | inactive
CCAR1 | -1.41 | migration z between -2 and 2; enough cells | 0.52 | 5249 | inactive
CCDC57 | 3.18 | migration z above 2; enough cells | 1.71 | 7328 | active
EML3 | 1.03 | migration z between -2 and 2; enough cells | 1.15 | 6333 | inactive
ATP6V1G3 | 0.34 | migration z between -2 and 2; enough cells | 0.87 | 5209 | inactive
CYP1A2 | 0.29 | migration z between -2 and 2; enough cells | 0.86 | 4824 | inactive
HNMT | -1.58 | migration z between -2 and 2; enough cells | 0.5 | 5702 | inactive
RHNO1 | -1.16 | migration z between -2 and 2; enough cells | 0.58 | 4468 | inactive
CTCFL | -0.02 | migration z between -2 and 2; enough cells | 0.88 | 4086 | inactive
NFKBIB | -0.8 | migration z between -2 and 2; enough cells | 0.65 | 3930 | inactive
SIGMAR1 | 0.36 | migration z between -2 and 2; enough cells | 0.88 | 4890 | inactive
CNR1 | -0.34 | migration z between -2 and 2; enough cells | 0.74 | 5312 | inactive
FBXL9P | -0.13 | migration z between -2 and 2; enough cells | 0.78 | 6002 | inactive

Laid out differently: entries from further up
| gene | migration robust z-score | migration class with cell-count check | migration relative to mock | nuclei per well, duplicate mean | activity call |
| --- | --- | --- | --- | --- | --- |
| ZDHHC14 | 1.34 | migration z between -2 and 2; enough cells | 1.23 | 6164 | inactive |
| ENPP5 | 0.16 | migration z between -2 and 2; enough cells | 0.84 | 5588 | inactive |
| PLK2 | -0.72 | migration z between -2 and 2; enough cells | 0.66 | 4546 | inactive |
| CPEB4 | -0.82 | migration z between -2 and 2; enough cells | 0.67 | 5888 | inactive |
| NFIA | 0.94 | migration z between -2 and 2; enough cells | 0.98 | 6188 | inactive |
| MRGPRE | -0.44 | migration z between -2 and 2; enough cells | 0.72 | 6386 | inactive |

Continued.
gene | migration robust z-score | migration class with cell-count check | migration relative to mock | nuclei per well, duplicate mean | activity call
KLK9 | 0.67 | migration z between -2 and 2; enough cells | 0.93 | 5106 | inactive
ELK1 | -0.57 | migration z between -2 and 2; enough cells | 0.7 | 5123 | inactive
RBM22 | -1.21 | migration z between -2 and 2; enough cells | 0.57 | 4909 | inactive
TMOD3 | 0.88 | migration z between -2 and 2; enough cells | 1.12 | 5634 | inactive
MAST1 | 1.09 | migration z between -2 and 2; enough cells | 1.02 | 4730 | inactive
C1orf159 | -0.4 | migration z between -2 and 2; enough cells | 0.78 | 6950 | inactive
TRAIP | -1.86 | migration z between -2 and 2; enough cells | 0.44 | 5308 | inactive
SAMD4A | 0.99 | migration z between -2 and 2; enough cells | 1 | 5916 | inactive
IFT88 | 1.16 | migration z between -2 and 2; enough cells | 1.18 | 7178 | inactive
NPPB | 0.31 | migration z between -2 and 2; enough cells | 0.86 | 5696 | inactive
INSIG1 | -0.82 | migration z between -2 and 2; enough cells | 0.67 | 5732 | inactive
GRK1 | -0.93 | migration z between -2 and 2; enough cells | 0.62 | 6208 | inactive
PTH2 | -2.66 | migration z below -2; enough cells | 0.2 | 5473 | active
CKAP5 | -1.47 | migration z between -2 and 2; enough cells | 0.5 | 4467 | inactive
EIF2D | -1.08 | migration z between -2 and 2; enough cells | 0.6 | 6444 | inactive
PRUNE2 | -0.13 | migration z between -2 and 2; enough cells | 0.86 | 6131 | inactive
HRAS | 1.56 | migration z between -2 and 2; enough cells | 1.1 | 6612 | inactive
TFEC | 0.49 | migration z between -2 and 2; enough cells | 0.9 | 6288 | inactive
SAR1B | 1.72 | migration z between -2 and 2; enough cells | 1.35 | 6493 | inactive
CALHM2 | -0.22 | migration z between -2 and 2; enough cells | 0.82 | 5146 | inactive
PDE8B | -1.3 | migration z between -2 and 2; enough cells | 0.56 | 4394 | inactive
ZBTB7C | -0.82 | migration z between -2 and 2; enough cells | 0.68 | 5408 | inactive
